Results: US9661856B1, “Synergy of plant antimicrobials with silver” (The Arizona Board of Regents on behalf of the University of …, priority 2012, dated 2017)
Some of these results come from one statement about several compounds together.

Tested on: Escherichia coli strain 25922
Assay: Reduction of Escherichia coli in PBS after exposure to plant antimicrobials with and without silver (spread plate count)
Format: cell-based
Protocol: Escherichia coli strain 25922 was obtained from the American Type Culture Collection (ATCC; Manassas, Va., USA) and was maintained on Tryptic Soy Agar (TSA; Difco, Sparks, Md., USA) with incubation for 18 to 24 h at 37° C. Prior to the start of each experiment, an Erlenmeyer flask containing 100 ml of Tryptic Soy Broth (TSB; Difco, Sparks, Md., USA) was inoculated with the organism and incubated on an orbital shaker (Model […]; New Brunswick Scientific, Edison, N.J., USA) at 300 rpm at 37° C. overnight. […] Beckman Coulter, Inc., Fullerton, Calif., USA). The pelleted cells were washed by re-suspension in 100 ml of physiological saline (0.85% NaCl) followed by centrifugation as described previously. This step was repeated one additional time. The final pellet was resuspended in 10 ml of sterile phosphate buffered saline (PBS; pH 7.4; Sigma-Aldrich, St. Louis, Mo., USA). […] A stock solution of silver (Ag) ions was prepared immediately prior to the start of each experiment by adding AgNO3 (J.T. Baker, Phillipsburg, N.Y., USA) to distilled water to obtain an Ag ion concentration of 100 mg/l (100 ppm). The Ag concentration was measured at the beginning of each experiment by a colorimetric procedure using a Hach DR/2000 spectrophotometer (Anonymous 1989). […] (Berkley, Calif., USA). […] The plates were incubated at 37° C. for 24 hours and the surviving bacterial colonies were counted. […]

## Cc1ccc(C(C)C)cc1O [Carvacrol, carvacrol]
0.04% carvacrol, 0.1% citral, 0.2% cinnamaldehyde, 1.0% allspice, without silver, within 1 to 10 min of exposure
  reductions in bacterial populations: > 5.0 log10
0.05% citral, 0.02% carvacrol or 0.1% cinnamaldehyde, alone or with 100 ppb Ag, PBS
  exposure time within which the reduction was statistically significant (P≦0.05) compared to the control: ≤ 5 min
